According to patent publication US20210171654A1:
These are yes or no findings as the source states them, for the method shown. Binding can be weak; no strength is given. Values belong to the binder of their own block, whether it stands above or below them.

How the values were obtained:
[1] = biological target: human SIRPB-His fusion protein (human); test: ELISA on SIRPB-His fusion protein
[2] = biological target: human SIRPB-His fusion protein (human); test: ELISA, binding to human SIRPB-His fusion protein

binding [1]: binds
binding [2]: binds
B1: 3C2 (parental mouse anti-human SIRPa monoclonal antibody) (antibody, V domains shown)
VH: QVQLQQPGAELVRPGSSVKLSCKASGYTFTSYWMHWVKQRPIQGLEWIGNIDPSDSDTHYNQKFKDKATLTVDKSSSTAYMQLSSLTSEDSAVYYCARGYSKYYAMDYWGQGTSVTVSS
VL: DVLMTQTPLSLSVSLGDQASISCRSSQSIVHSYGNTYLEWYLQKPGQSPKLLIYKVSNRFSGVPDRFSGSGSGTDFTLKISRVEAEDLGVYYCFQGSHVPYTFGGGTKLEIK

binding [1]: binds
binding [2]: binds
B2: 1H9 (parental mouse anti-human SIRPa monoclonal antibody) (antibody, V domains shown)
VH: QVQLQQPGAERVKPGASVKMSCKASGYTFTSYWITWVKQRPGQGLEWIGDIYPGSGSTNHIEKFKSKATLTVDTSSNTAYMQLSRLTSEDSAVYYCATGYGSSYGYFDYWGQGTTLTVSS
VL: DIQMTQSPASLSASVGETVTITCRASENIYSYLAWYQQKQGKSPQLLVYTAKTLAEGVPSRFSGSGSGTQFSLKINSLQPEDFGNYYCQHQYGPPFTFGSGTRLVIK
